Our source for the binding values is doi:10.64898/2025.12.15.694336.

Amino acid sequences for entries named in this document (tags omitted). Residues count along the entry.
UniProt P11021, residues 19-654: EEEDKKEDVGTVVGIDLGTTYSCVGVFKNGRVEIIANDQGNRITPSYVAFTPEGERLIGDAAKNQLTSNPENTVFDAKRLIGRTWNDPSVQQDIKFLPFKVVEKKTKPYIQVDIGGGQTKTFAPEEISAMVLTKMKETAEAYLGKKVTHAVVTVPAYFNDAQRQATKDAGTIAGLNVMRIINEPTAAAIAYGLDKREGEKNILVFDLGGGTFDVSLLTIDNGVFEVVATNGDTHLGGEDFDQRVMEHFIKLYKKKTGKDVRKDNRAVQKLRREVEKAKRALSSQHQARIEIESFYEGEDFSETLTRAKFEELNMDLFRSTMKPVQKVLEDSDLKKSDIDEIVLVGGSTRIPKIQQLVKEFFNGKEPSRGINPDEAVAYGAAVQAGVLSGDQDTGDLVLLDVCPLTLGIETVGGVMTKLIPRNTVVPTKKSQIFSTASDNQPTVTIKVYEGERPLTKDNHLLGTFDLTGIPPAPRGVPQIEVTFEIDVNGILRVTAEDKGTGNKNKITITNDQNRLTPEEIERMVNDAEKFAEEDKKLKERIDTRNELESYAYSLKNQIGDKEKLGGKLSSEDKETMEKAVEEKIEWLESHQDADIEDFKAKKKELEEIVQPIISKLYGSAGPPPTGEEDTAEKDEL
UniProt P20163, residues 18-657: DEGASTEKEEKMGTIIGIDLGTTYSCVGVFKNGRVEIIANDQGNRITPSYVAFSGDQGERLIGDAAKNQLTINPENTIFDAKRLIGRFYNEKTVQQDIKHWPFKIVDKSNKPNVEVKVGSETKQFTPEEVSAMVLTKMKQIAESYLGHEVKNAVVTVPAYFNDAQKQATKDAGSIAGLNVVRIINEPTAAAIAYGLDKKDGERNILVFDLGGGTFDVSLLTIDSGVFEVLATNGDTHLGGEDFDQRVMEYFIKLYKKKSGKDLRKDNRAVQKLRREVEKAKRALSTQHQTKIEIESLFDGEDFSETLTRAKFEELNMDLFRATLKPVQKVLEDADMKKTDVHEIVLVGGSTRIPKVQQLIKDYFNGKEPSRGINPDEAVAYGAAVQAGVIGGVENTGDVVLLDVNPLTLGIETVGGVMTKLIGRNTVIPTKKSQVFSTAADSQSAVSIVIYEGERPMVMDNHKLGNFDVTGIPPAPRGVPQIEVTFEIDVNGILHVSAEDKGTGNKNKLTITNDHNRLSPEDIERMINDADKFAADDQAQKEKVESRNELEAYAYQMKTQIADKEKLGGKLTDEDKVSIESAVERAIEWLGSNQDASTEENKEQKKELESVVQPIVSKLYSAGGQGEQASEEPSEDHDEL
UniProt Q9Y282: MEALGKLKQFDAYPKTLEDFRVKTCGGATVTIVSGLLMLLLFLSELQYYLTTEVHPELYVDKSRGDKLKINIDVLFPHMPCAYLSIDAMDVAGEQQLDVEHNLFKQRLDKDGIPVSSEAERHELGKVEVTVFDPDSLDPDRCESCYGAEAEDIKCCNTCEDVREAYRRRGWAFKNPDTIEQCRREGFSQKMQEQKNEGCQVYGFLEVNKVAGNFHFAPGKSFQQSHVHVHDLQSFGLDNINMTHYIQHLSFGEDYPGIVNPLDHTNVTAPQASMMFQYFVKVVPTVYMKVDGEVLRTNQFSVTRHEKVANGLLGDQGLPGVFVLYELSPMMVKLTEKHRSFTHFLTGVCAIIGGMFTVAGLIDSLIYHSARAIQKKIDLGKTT

Holding throughout (assay): co-IP
The target of one experiment is T1, UNC-9::GFP (C. elegans) (UniProt O01393).
T1 sequence: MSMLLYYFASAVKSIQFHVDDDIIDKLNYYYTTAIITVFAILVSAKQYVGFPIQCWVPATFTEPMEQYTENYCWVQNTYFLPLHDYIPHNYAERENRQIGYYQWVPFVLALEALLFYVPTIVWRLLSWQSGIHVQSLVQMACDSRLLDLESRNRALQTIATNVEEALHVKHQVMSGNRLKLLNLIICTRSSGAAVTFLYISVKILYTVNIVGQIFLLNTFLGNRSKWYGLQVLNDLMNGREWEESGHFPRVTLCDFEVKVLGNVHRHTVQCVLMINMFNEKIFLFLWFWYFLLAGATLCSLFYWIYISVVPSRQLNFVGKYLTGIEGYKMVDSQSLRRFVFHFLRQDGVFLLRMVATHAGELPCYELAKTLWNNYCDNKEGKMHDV

The target of another experiment is human BiP (human) (UniProt P11021).
The target of a further experiment is HSP-4::Myc (C. elegans) (UniProt P20163).

No constants are given. Whether binding was seen depends on the method and setting. Binding seen in cells or lysates may run through a third protein. Some entries that bind do so weakly or less than the wild type. For some of these results: Tags and fused reporters may be left off the sequences shown.

As to HSP-4::Myc (from UniProt P20163 18-657), the binding entry with UNC-9::GFP (C. elegans) is reported as “binds”.
Turning to “human ERGIC3 (from UniProt Q9Y282 1-383)”, the binding result with human BiP (human) is recorded as “binds”.

B1: human ERGIC2 (protein, UniProt Q96RQ1 1-377)
chain: MRRLNRKKTLSLVKELDAFPKVPESYVETSASGGTVSLIAFTTMALLTIMEFSVYQDTWMKYEYEVDKDFSSKLRINIDITVAMKCQYVGADVLDLAETMVASADGLVYEPTVFDLSPQQKEWQRMLQLIQSRLQEEHSLQDVIFKSAFKSTSTALPPREDDSSQSPNACRIHGHLYVNKVAGNFHITVGKAIPHPRGHAHLAALVNHESYNFSHRIDHLSFGELVPAIINPLDGTEKIAIDHNQMFQYFITVVPTKLHTYKISADTHQFSVTERERIINHAAGSHGVSGIFMKYDLSSLMVTVTEEHMPFWQFFVRLCGIVGGIFSTTGMLHGIGKFIVEIICCRFRLGSYKPVNSVPFEDGHTDNHLPLLENNTH
Take B1: in the experiment with human BiP (human), the binding entry was “binds”.

B2: IRE-1::HA (protein, UniProt Q09499 22-967)
chain: ISTPGFRNDHESIGDDEEKTSSTILVSTIDGRLRALDSETGEIKWTLQEEPVLRSPSAVKQGFTFLPNPLDGSLYVLKNSSLKKLPFNIPQLVHASPCKGNDGILYAGSKKDVWFGIDPKTGLKVETLSSASADRICPANQKQTIFLGRTEYRVSMFDEKNRGKTWNATFNDYSAHLLPEVNTWPFKHYASSSHGYILTFDRETGEMRWEQDLKQPVVALYLLRDDGLHKLPFEVMGKETMENVAKNIFTVDQWPTVLGVNAADPQTTSLTNQFFPALFVGESSFGLYAIEALVDHQTITYSPKLLGPPLLEGPAPIALTEMEKEEYLPPRRPIIRNIPPSITHKTSDGEYLLLGYHDRPMMTMATIIPTRYPVPGPHKAIGSTIERPPPQLLGPVEPQKHEDTSFILLLLNNHPIPFYATLVTMFALLLTVIWQCGRQWDQQKSTSRMDSFEIVNNPGESRSAQTSKQSNRGSFGWANRKIEIPEGWMAVGSKLMYSPSDILGTGCEGTVVYRGTFDGREVAVKRVVSEFVKFAHREADLLRESDTHPHVIRYFCMESDSQFRYLALELCIASLNDYVEQKEVQQNVTIALRDIMKQATDGLAHLHASKIVHRDMKPQNVLITMASQRGEMRAVISDFGLCKRVQPGKNSISRGIASGLAGTDGWIAPEVLISASTSYPVDIFSLGCIFYYVLTSGTHPFGKSLHRQANIVNGEYTLNKLADLDDWSLADDLISSMLNVEPLHRLTADAVLNHPFFWTSEKRLAYFSDVSDRVEKEEDNSPVVRRIETDARIVVCGGWREKICDALKEDLRKFRTYKSFSVRDLLRAMRNKKHHYRELPEDVRQSLGDIPDQFLHYFTSRFPRLLLHVYKATEYCSGEAVFKRYYSDDVRARMYPIVEEEERVRKKIKEEMANEVWARAPKPVEQRTPLKLDKRNIKKKSNPNTD
Take B2: in the experiment with HSP-4::Myc (C. elegans), the binding entry was “binds”.
